PubChem BioAssay AID1259405 – NCATS – 2018

Screen: 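Knock-downs that lift recombinant protein yield in hamster ovary cells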 (primary screen)
Cells: Chinese hamster CHO-K1 ovary cells with stable secreted eGFP expression
Knock-down reagent: single siRNA against mouse genes, 0.8 pmol siRNA per well (2 µl of 400 nM stock)
Timing: 3 days
Measured: 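Percent of the per-plate non-targeting control median for intracellular GFP per well by laser scanning cytometry and for cell viability by ATP luminescence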
Reading the numbers: GFP, % of control: higher = more GFP per well, higher productivity; viability (ATP), % of control: higher = more viable cells (more ATP)
Call rule: 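Called active when intracellular GFP, relative to negative control, is at or above 120%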
This is an unselected part of about 50,000 deposited reagents. About 4,000 of all reagents (8%) were called active. 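Mouse siRNA library applied to hamster cells; one well for each siRNA.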 The numbers tell different reagents against one gene apart.

| gene symbol | siRNA no. | GFP, % of control | viability (ATP), % of control | Outcome |
| --- | --- | --- | --- | --- |
| Tiaf2 | 1 | 68.9 | 54.6 | inactive |
| Tiaf2 | 2 | 112 | 111 | inactive |
| Tiaf2 | 3 | 57.1 | 92.5 | inactive |
| Ces1g | 1 | 94.2 | 71.5 | inactive |
| Ces1g | 2 | 105 | 75.7 | inactive |
| Ces1g | 3 | 55.3 | 92.5 | inactive |
| BC049715 | 1 | 60.9 | 65.6 | inactive |
| BC049715 | 2 | 64.1 | 73.9 | inactive |
| BC049715 | 3 | 137 | 136 | active |
| Tas2r114 | 1 | 58.4 | 67.8 | inactive |
| Tas2r114 | 2 | 76.7 | 81.2 | inactive |
| Tas2r114 | 3 | 80.9 | 92.1 | inactive |
| Itgb3bp | 1 | 53.2 | 59.9 | inactive |
| Itgb3bp | 2 | 84.5 | 74.7 | inactive |
| Itgb3bp | 3 | 67.5 | 72.9 | inactive |
| Ccnb3 | 1 | 78.6 | 87 | inactive |
| Ccnb3 | 2 | 94.4 | 81.3 | inactive |
| Gmds | 1 | 114 | 108 | inactive |
| Gmds | 2 | 84.8 | 83.2 | inactive |
| Or6b2 | 1 | 115 | 98.1 | inactive |
| Or6b2 | 2 | 80.2 | 61.3 | inactive |
| Or6b2 | 3 | 77.4 | 109 | inactive |
| Or5m8 | 1 | 76.9 | 69 | inactive |
| Or5m8 | 2 | 89.3 | 64.9 | inactive |
| Or5m8 | 3 | 67.4 | 98.4 | inactive |
| Mid2 | 1 | 67 | 58.7 | inactive |
| Mid2 | 2 | 83.3 | 63.3 | inactive |
| Cdc20 | 1 | 58.2 | 66.7 | inactive |
| Cdc20 | 2 | 128 | 122 | active |
| Rdx | 1 | 64.1 | 72.2 | inactive |
| Rdx | 2 | 104 | 79.3 | inactive |
| Sec62 | 1 | 52.3 | 76 | inactive |
| Sec62 | 2 | 57.1 | 73.8 | inactive |
| Sec62 | 3 | 80 | 68.1 | inactive |
| Hnf1b | 1 | 103 | 116 | inactive |
| Hnf1b | 2 | 65.6 | 64.3 | inactive |
| Hnf1b | 3 | 102 | 99.6 | inactive |
| Sf3a2 | 1 | 74.9 | 77.8 | inactive |
| Sf3a2 | 2 | 77.8 | 77.7 | inactive |
| Sf3a2 | 3 | 57.5 | 50.5 | inactive |
| Nkx3-2 | 1 | 71.9 | 60.5 | inactive |
| Nkx3-2 | 2 | 89.7 | 88.1 | inactive |
| Nkx3-2 | 3 | 112 | 106 | inactive |
| Aup1 | 1 | 41.9 | 67.3 | inactive |
| Aup1 | 2 | 73.9 | 84.6 | inactive |
| Aup1 | 3 | 111 | 38.5 | inactive |
| Atoh8 | 1 | 61.9 | 81.2 | inactive |
| Atoh8 | 2 | 58.6 | 87.6 | inactive |
| Atoh8 | 3 | 99.3 | 108 | inactive |
| Sufu | 1 | 105 | 59 | inactive |
| Sufu | 2 | 78.3 | 79.8 | inactive |
| Impa1 | 1 | 81.1 | 51.3 | inactive |
| Impa1 | 2 | 97.9 | 91.7 | inactive |
| Impa1 | 3 | 83.8 | 78 | inactive |
| B3gnt7 | 1 | 140 | 105 | active |
| B3gnt7 | 2 | 86.8 | 141 | inactive |
| B3gnt7 | 3 | 99.6 | 102 | inactive |
| Fads2 | 1 | 110 | 135 | inactive |
| Fads2 | 2 | 83.9 | 68.7 | inactive |

Laid out differently: results already given
Aup1 #3
- GFP, % of control: 111
- viability (ATP), % of control: 38.5
- Outcome: inactive

Atoh8 #1
- GFP, % of control: 61.9
- viability (ATP), % of control: 81.2
- Outcome: inactive

Atoh8 #2
- GFP, % of control: 58.6
- viability (ATP), % of control: 87.6
- Outcome: inactive

Atoh8 #3
- GFP, % of control: 99.3
- viability (ATP), % of control: 108
- Outcome: inactive

Sufu #1
- GFP, % of control: 105
- viability (ATP), % of control: 59
- Outcome: inactive

Sufu #2
- GFP, % of control: 78.3
- viability (ATP), % of control: 79.8
- Outcome: inactive

Impa1 #1
- GFP, % of control: 81.1
- viability (ATP), % of control: 51.3
- Outcome: inactive

Impa1 #2
- GFP, % of control: 97.9
- viability (ATP), % of control: 91.7
- Outcome: inactive

Further results follow.
| gene symbol | siRNA no. | GFP, % of control | viability (ATP), % of control | Outcome |
| --- | --- | --- | --- | --- |
| Ormdl1 | 1 | 74.7 | 85.2 | inactive |
| Ormdl1 | 2 | 80.9 | 64.6 | inactive |
| Ormdl1 | 3 | 91.2 | 106 | inactive |
| Bud31 | 1 | 76 | 84.8 | inactive |
| Bud31 | 2 | 68.1 | 49.3 | inactive |
| Bud31 | 3 | 95.5 | 116 | inactive |
| Rap2a | 1 | 96.8 | 81.1 | inactive |
| Rap2a | 2 | 77 | 108 | inactive |
| Rap2a | 3 | 73.4 | 78.2 | inactive |
| Sult3a1 | 1 | 37.6 | 63.5 | inactive |
| Sult3a1 | 2 | 68.2 | 72.8 | inactive |
| Sult3a1 | 3 | 125 | 79.1 | active |
| Eif4a1 | 1 | 69.6 | 63.1 | inactive |
| Eif4a1 | 2 | 46.4 | 62.6 | inactive |
| Eif4a1 | 3 | 62 | 65 | inactive |
| Tecr | 1 | 59.8 | 64.3 | inactive |
| Tecr | 2 | 64.6 | 54.8 | inactive |
| Tecr | 3 | 124 | 61 | active |
| Hmg20a | 1 | 65.5 | 99.5 | inactive |
| Hmg20a | 2 | 31.2 | 43.4 | inactive |
| Hmg20a | 3 | 106 | 96.1 | inactive |
| Psg21 | 1 | 112 | 65.8 | inactive |
| Psg21 | 2 | 67.3 | 51.9 | inactive |
| Psg21 | 3 | 86.9 | 104 | inactive |
| Dzip1l | 1 | 132 | 122 | active |
| Dzip1l | 2 | 101 | 92.5 | inactive |
| Dzip1l | 3 | 96.1 | 63.6 | inactive |
| Siglec1 | 1 | 81.9 | 68.3 | inactive |
| Siglec1 | 2 | 90.5 | 82.9 | inactive |
| Capn12 | 1 | 72.9 | 85.1 | inactive |
| Capn12 | 2 | 21 | 33.8 | inactive |
| Capn12 | 3 | 99.8 | 77.7 | inactive |
| Ranbp9 | 1 | 36.3 | 29.9 | inactive |
| Ranbp9 | 2 | 71.9 | 95.6 | inactive |
| Ranbp9 | 3 | 97.5 | 114 | inactive |
| Kif24 | 1 | 38.6 | 51.3 | inactive |
| Kif24 | 2 | 68.7 | 72.3 | inactive |
| Kif24 | 3 | 74.6 | 61 | inactive |
| Mmut | 1 | 114 | 123 | inactive |
| Mmut | 2 | 49.2 | 65 | inactive |
| Mmut | 3 | 45.6 | 42.6 | inactive |
| Dcakd | 1 | 128 | 96.3 | active |
| Glt1d1 | 1 | 89.1 | 71.4 | inactive |
| Glt1d1 | 2 | 75.5 | 77 | inactive |
| Glt1d1 | 3 | 70.1 | 74.2 | inactive |
| Adgb | 1 | 82.2 | 78.3 | inactive |
| Adgb | 2 | 131 | 99 | active |
| Adgb | 3 | 169 | 141 | active |
